In paper PMC9110524:
No constants are given. Whether binding was seen depends on the method and setting. Binding seen in cells or lysates may run through a third protein. Some results given as binding are weak or reduced against the parent protein; the word gives no strength.

Sequences of proteins named here, by UniProt entry; tags and fusion partners are left off.
UniProt Q9NRD5: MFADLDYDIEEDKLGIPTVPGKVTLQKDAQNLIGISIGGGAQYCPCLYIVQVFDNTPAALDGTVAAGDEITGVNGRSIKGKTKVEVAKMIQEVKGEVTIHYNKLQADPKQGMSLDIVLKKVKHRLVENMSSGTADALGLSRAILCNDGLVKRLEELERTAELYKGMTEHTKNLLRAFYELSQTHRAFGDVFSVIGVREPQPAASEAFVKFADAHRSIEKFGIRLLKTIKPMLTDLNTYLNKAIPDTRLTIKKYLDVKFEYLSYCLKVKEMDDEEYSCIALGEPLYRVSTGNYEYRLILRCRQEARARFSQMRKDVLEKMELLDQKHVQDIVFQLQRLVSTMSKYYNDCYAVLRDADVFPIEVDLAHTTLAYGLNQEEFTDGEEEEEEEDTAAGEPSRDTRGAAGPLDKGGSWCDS

Biological target: T1, nephrin (wild-type, human cDNA) (human) (UniProt O60500)
T1 sequence: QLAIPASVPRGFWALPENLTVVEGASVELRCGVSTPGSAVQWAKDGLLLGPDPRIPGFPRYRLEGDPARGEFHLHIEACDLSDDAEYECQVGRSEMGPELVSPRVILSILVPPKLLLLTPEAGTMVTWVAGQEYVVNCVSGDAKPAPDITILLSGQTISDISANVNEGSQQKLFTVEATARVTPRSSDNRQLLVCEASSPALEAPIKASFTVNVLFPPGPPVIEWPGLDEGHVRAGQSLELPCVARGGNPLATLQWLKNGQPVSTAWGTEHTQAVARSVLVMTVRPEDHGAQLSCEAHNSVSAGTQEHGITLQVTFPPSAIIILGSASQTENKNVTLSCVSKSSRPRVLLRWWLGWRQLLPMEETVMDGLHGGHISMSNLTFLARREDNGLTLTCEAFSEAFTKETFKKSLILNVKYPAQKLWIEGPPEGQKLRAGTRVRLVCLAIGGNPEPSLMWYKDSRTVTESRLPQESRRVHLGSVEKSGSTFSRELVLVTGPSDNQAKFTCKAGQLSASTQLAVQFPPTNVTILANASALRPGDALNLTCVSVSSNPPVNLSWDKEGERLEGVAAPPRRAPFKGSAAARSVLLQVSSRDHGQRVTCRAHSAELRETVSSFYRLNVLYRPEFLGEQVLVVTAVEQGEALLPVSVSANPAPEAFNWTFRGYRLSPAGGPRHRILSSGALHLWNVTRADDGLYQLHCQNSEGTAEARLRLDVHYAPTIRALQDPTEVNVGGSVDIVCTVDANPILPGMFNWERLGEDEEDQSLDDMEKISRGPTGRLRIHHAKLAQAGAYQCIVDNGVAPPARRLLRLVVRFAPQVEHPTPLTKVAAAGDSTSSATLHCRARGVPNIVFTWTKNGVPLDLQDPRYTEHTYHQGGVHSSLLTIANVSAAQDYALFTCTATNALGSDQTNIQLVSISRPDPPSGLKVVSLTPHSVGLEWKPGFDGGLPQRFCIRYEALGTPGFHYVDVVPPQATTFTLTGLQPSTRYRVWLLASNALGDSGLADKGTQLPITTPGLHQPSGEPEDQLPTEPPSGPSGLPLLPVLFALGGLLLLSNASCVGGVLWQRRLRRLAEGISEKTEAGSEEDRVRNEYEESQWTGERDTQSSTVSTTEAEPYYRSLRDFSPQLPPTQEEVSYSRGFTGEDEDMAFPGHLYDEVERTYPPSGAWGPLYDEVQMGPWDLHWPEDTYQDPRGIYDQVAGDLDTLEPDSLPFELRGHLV
Test: co-IP; HEK293T overexpressing untagged PKCα, flag-tagged PICK1 and wild-type nephrin or nephrin S1146A; 1% Triton X-100 lysis buffer; nephrin immobilised, PKCα and PICK1 detected by Western blot; densitometry of IP signal over lysate signal, wild-type nephrin normalised to 100%

Row | Substance | binding
1 | protein kinase C alpha (from UniProt P17252 1-672) (enzyme) | binds
2 | protein interacting with c kinase-1 (from UniProt Q9NRD5 1-415) | binds
